Source: the supplement of paper PMC10849652
This is one part of the list.

Protein sequences, listed by entry. Tags and fused reporters are not part of them. Lines headed by an entry give the natural chain unless they say otherwise; changes in a name come on top.
UniProt P35244: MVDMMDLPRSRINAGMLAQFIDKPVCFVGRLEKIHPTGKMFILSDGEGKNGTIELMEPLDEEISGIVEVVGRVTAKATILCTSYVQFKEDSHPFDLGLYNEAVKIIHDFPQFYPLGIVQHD
UniProt Q96A37: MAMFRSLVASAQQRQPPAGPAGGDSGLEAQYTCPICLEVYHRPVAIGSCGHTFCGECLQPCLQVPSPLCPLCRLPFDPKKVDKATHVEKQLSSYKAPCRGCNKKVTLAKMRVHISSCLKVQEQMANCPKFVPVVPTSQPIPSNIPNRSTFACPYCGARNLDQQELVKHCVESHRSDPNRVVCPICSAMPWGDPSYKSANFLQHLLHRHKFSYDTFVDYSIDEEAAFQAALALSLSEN
UniProt Q969K3: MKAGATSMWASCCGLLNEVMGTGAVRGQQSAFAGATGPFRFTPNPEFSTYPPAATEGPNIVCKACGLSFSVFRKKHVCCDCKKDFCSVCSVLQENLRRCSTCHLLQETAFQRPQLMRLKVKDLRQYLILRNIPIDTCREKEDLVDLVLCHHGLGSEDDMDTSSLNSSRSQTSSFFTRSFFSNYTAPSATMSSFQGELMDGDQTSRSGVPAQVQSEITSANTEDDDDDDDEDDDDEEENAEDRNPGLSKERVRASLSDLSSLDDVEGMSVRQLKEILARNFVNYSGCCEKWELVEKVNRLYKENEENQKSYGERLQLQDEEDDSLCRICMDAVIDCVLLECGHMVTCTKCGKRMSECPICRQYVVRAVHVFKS
UniProt Q9BQY4: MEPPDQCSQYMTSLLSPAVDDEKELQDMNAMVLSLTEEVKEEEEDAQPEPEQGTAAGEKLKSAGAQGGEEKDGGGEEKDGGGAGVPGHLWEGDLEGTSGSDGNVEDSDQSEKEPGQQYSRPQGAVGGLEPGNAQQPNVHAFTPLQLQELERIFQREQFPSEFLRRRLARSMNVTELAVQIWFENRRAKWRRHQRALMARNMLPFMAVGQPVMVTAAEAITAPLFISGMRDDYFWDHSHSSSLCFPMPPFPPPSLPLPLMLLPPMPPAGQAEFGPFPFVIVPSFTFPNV
UniProt Q96TC7: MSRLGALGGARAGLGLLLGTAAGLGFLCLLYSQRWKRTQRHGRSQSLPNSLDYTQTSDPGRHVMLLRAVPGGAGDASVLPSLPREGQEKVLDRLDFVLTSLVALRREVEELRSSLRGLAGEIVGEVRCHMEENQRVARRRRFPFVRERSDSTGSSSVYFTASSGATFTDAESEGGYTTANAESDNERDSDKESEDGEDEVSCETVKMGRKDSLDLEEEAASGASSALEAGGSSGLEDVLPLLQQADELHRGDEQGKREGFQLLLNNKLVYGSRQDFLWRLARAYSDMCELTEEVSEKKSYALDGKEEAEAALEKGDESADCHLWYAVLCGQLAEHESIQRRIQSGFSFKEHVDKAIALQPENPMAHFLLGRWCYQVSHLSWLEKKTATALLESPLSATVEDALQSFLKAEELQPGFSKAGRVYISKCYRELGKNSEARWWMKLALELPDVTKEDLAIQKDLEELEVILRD
UniProt Q8WVD3: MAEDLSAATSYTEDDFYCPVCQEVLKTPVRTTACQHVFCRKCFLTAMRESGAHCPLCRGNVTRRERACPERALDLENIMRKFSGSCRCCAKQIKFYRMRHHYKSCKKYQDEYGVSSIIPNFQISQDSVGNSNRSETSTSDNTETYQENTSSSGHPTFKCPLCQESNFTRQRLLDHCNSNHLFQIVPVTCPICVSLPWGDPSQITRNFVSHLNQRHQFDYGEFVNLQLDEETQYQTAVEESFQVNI
UniProt Q5VTR2, whole entry, looked up: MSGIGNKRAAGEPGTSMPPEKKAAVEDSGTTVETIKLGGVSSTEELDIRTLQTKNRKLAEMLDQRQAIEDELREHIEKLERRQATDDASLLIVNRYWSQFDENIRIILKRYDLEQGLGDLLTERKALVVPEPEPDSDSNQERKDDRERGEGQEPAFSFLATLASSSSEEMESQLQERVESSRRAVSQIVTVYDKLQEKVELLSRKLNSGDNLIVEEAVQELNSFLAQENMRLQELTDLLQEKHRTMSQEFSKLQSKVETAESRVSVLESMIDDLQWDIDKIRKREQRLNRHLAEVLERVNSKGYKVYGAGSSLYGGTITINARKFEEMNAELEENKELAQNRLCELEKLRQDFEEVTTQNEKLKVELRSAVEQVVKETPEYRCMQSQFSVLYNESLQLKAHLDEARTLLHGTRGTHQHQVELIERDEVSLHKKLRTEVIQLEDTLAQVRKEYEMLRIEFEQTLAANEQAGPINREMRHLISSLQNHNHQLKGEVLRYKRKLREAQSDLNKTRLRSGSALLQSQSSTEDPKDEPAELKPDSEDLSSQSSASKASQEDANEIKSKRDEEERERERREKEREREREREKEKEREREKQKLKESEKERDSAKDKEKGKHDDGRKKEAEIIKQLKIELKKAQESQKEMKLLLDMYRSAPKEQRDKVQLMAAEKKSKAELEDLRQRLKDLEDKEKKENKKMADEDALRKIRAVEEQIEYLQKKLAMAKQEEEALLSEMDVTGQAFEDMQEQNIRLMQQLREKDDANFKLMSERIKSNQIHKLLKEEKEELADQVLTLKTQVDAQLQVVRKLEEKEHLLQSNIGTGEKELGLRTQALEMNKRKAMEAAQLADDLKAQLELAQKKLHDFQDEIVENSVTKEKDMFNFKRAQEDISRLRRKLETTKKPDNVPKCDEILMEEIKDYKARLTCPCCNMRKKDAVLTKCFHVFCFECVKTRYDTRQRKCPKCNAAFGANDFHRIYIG
UniProt Q96DB5: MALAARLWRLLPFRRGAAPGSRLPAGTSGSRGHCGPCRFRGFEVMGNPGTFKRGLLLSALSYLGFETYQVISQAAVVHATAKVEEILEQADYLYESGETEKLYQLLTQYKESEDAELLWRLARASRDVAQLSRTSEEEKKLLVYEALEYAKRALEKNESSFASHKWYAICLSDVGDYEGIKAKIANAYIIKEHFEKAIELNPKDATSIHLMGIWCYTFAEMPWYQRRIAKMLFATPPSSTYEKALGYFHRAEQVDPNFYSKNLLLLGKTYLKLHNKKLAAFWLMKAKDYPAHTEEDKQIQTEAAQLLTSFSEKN
UniProt Q96DM3: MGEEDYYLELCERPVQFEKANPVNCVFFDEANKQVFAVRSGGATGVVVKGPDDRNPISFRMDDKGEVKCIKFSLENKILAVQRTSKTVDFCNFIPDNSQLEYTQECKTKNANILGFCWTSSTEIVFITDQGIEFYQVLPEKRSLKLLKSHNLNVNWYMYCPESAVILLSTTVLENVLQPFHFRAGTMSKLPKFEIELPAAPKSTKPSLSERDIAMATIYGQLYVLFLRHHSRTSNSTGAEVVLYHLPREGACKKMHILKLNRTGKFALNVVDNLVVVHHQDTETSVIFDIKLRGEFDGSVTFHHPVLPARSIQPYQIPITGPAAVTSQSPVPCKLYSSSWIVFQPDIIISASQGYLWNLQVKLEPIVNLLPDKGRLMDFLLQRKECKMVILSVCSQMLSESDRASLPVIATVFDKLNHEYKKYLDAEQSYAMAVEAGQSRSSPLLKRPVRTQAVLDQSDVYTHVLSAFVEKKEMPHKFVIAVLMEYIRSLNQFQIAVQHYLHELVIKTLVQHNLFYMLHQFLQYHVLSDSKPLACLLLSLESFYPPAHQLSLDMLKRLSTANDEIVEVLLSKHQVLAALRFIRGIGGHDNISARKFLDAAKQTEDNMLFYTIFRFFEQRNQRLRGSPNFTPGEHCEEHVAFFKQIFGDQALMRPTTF
UniProt O43353, whole entry, looked up: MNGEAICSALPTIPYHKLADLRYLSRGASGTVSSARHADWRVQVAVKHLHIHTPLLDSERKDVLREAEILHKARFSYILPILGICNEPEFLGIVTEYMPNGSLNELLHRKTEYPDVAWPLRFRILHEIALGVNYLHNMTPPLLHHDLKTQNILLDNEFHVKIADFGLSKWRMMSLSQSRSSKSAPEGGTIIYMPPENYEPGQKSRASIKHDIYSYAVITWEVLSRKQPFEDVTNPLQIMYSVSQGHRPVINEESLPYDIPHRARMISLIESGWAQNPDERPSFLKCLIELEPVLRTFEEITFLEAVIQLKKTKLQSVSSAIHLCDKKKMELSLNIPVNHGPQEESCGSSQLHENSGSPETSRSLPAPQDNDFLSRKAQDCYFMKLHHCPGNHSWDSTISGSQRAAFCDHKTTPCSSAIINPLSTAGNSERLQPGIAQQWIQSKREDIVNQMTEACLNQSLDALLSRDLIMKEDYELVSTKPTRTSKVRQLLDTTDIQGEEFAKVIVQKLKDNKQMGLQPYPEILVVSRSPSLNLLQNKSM
UniProt O60942: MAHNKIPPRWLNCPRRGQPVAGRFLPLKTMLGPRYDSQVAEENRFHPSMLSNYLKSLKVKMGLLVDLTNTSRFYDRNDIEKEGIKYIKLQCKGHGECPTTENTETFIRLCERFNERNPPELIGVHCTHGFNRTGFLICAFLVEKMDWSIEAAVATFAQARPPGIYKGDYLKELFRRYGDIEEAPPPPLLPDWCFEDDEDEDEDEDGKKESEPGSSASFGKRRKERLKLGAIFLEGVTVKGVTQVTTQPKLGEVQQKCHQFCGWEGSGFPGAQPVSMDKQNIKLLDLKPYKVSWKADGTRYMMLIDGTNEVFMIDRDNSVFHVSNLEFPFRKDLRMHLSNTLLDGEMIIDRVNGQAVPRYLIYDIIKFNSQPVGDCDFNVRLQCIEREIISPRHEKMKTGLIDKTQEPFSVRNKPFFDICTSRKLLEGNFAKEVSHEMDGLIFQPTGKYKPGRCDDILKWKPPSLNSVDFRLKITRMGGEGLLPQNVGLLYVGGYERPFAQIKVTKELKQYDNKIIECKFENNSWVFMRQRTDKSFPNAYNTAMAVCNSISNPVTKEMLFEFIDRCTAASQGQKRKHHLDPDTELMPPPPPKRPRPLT
UniProt Q9BV68: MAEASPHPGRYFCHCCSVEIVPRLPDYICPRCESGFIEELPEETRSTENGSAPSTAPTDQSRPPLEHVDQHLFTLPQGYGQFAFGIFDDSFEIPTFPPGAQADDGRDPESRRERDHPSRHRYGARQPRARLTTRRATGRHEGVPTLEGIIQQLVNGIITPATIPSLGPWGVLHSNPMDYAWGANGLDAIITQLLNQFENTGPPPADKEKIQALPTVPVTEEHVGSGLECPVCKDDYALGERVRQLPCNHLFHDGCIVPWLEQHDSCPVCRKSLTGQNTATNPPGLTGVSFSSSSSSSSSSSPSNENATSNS
UniProt Q9P0P0: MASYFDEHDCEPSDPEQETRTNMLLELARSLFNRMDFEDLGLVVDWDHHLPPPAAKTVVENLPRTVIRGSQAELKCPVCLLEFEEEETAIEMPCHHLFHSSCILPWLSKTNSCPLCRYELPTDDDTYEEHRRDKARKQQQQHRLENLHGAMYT
UniProt O75792: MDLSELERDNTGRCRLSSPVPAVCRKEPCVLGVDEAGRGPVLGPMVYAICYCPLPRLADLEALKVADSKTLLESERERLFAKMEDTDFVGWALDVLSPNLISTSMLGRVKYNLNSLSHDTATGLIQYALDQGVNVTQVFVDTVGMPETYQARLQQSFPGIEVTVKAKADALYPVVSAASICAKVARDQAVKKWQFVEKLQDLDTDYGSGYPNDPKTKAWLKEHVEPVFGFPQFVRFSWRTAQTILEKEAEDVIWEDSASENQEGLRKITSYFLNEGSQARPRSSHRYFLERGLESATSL
UniProt Q05823: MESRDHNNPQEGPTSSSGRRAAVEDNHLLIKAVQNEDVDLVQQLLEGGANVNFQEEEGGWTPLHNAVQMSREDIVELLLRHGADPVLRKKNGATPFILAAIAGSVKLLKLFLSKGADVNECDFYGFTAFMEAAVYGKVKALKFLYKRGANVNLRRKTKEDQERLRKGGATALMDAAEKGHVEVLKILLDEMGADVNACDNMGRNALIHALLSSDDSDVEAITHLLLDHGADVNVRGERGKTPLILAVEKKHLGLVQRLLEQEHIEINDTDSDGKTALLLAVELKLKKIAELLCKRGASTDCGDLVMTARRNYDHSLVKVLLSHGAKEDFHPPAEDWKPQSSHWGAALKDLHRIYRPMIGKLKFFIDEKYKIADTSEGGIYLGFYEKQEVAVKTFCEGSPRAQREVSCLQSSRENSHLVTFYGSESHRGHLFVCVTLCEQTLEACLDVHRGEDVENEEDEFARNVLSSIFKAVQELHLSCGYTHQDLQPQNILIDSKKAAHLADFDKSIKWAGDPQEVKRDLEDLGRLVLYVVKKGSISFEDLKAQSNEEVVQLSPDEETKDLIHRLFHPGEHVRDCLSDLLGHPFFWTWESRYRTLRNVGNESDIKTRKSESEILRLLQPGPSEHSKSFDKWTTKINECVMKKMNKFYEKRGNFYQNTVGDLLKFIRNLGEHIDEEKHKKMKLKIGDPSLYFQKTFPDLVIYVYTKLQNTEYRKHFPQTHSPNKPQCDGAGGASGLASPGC
UniProt P84095: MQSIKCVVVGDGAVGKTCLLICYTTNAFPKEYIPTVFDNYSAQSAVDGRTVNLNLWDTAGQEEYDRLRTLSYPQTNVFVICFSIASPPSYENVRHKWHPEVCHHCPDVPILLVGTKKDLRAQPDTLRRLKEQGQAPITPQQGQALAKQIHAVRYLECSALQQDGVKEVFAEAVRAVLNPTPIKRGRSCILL

Tests used:
Experiment in all cases: log2 fold change, soluble protein after heating vs DMSO (PISA); higher = thermal stabilisation; K562 lysate, 10 uM; active = over 0.2 and 3.5 SD of the protein, either way, in both replicates (recomputed)
[1] = compound: C1=CC=C(C=C1)[C@H](COC2=CC3=C(C=C2)NC(=O)N3)NC(=O)C4=CC=CN(C4=O)CC5=CC(=C(C=C5)F)F
Method in brief: (§1)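 Soluble protein was defined as the supernatant remaining after 21,000xg for 90 min, following pooling of heated aliquots and adjustment to 0.5% NP-40 at 4°C. Before that, crude K562 extract at 1 mg/mL protein in PBS pH 7.4 with 1 mM MgCl2 was treated with 10 μM compound for 30 min and heated for 3 min across 48°C-58°C. Quantification used TMTpro 16plex LC-MS/MS with channel sums equalised, and values are log-two fold changes in thermal stability relative to solvent controls from duplicates.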

[2] = compound: CC1=C(SC2=C1C(=N[C@H](C3=NN=C(N32)C)CC(=O)N)C4=CC=C(C=C4)Cl)C
Method in brief: as §1

[3] = compound: CC1=C2C(=CC=C1)N=C(N(C2=O)C3=CC=CC=C3C)CN4C=NC5=C(N=CN=C54)N
Method in brief: as §1

[4] = compound: Cc1sc2c(c1C)C(c1ccc(Cl)cc1)=N[C@@H](CC(=O)OC(C)(C)C)c1nnc(C)n1-2
Method in brief: as §1

[5] = compound: c1ccc([C@@H]2C[C@H]2NC2CCNCC2)cc1
Method in brief: as §1

Measured: log2 fold change

RPL27A (UniProt P46776)
inactive: [1] 0.033 | [2] -0.025 | [3] -0.004 | [4] -0.068 | [5] -0.029

RNF146 (UniProt Q9NTX7)
inactive: [1] 0.002 | [2] -0.04 | [3] 0.002 | [4] 0.073 | [5] -0.044

RNF114 (UniProt Q9Y508)
inactive: [1] 0.033 | [2] -0.01 | [3] -0.007 | [4] 0.012 | [5] -0.07

RPL32 (UniProt P62910)
inactive: [1] 0.009 | [2] 0.001 | [3] -0.026 | [4] 0.036 | [5] 0.029

RPA3 (UniProt P35244)
inactive: [1] 0.004 | [2] -0.014 | [3] 0.017 | [4] 0.046 | [5] 0.018

RIOK2 (UniProt Q9BVS4)
inactive: [1] 0.002 | [2] -0.018 | [3] 0.009 | [4] -0.023 | [5] -0.022

RNASET2 (UniProt O00584)
inactive: [1] 0.009 | [2] -0.028 | [3] -0.013 | [4] -0.012 | [5] -0.046

RPL34 (UniProt P49207)
inactive: [1] -0.003 | [2] 0.033 | [3] -0.018 | [4] -0.022 | [5] -0.039

RNF166 (UniProt Q96A37)
inactive: [1] 0.105 | [2] -0.157 | [3] -0.005 | [4] 0.08 | [5] -0.148

RPAP3 (UniProt Q9H6T3)
inactive: [1] -0.01 | [2] 0.025 | [3] 0.011 | [4] 0.005 | [5] 0.021

RNF34 isoform 2 (UniProt Q969K3)
inactive: [1] 0.216 | [2] -0.018 | [3] -0.037 | [4] 0.032 | [5] -0.069

RPL13A (UniProt P40429)
inactive: [1] -0.01 | [2] 0.014 | [3] 0.01 | [4] 0.009 | [5] 0.017

RHOXF2 (UniProt Q9BQY4)
inactive: [1] -0.038 | [2] -0.023 | [3] 0.056 | [4] 0.009 | [5] -0.069

RNF149 (UniProt Q8NC42)
inactive: [1] -0.015 | [2] 0.022 | [3] -0.138 | [4] -0.081 | [5] 0

ROCK1 (UniProt Q13464)
inactive: [1] 0.019 | [2] 0.027 | [3] 0.023 | [4] -0.016 | [5] -0.008

RNF213, A0A0A0MTC1
inactive: [1] -0.02 | [2] -0.007 | [3] 0.069 | [4] 0.004 | [5] 0.045

RNF130 (UniProt Q86XS8)
inactive: [1] -0.042 | [2] -0.014 | [3] -0.029 | [4] 0.103 | [5] 0.076

RPL27 (UniProt P61353)
inactive: [1] 0.034 | [2] 0.031 | [3] 0.003 | [4] 0.008 | [5] 0.101

RMDN3 (UniProt Q96TC7)
inactive: [1] -0.011 | [2] -0.017 | [3] 0.075 | [4] -0.114 | [5] -0.035

RHOB (UniProt P62745)
inactive: [1] -0.013 | [2] -0.067 | [3] 0.008 | [4] 0.011 | [5] -0.002

RPL35A (UniProt P18077)
inactive: [1] -0.003 | [2] -0.029 | [3] 0.022 | [4] 0.096 | [5] -0.105

RNF138 (UniProt Q8WVD3)
inactive: [1] 0.078 | [2] 0.018 | [3] 0.082 | [4] 0.041 | [5] 0.048

RPL13 (UniProt P26373)
inactive: [1] 0.004 | [2] 0.017 | [3] -0.024 | [4] -0.003 | [5] -0.056

RNF20 (UniProt Q5VTR2)
inactive: [1] -0.005 | [2] -0.01 | [3] 0.003 | [4] 0.001 | [5] 0.011

RNF25 (UniProt Q96BH1)
inactive: [1] 0.012 | [2] 0.014 | [3] 0.036 | [4] 0.005 | [5] -0.021

RMDN1 (UniProt Q96DB5)
inactive: [1] -0.017 | [2] 0.022 | [3] -0.005 | [4] 0.032 | [5] 0.053

RNF141 (UniProt Q8WVD5)
inactive: [1] 0.075 | [2] 0.027 | [3] -0.223 | [4] 0.045 | [5] 0.003

RMC1 (UniProt Q96DM3)
inactive: [1] -0.013 | [2] 0.018 | [3] -0.052 | [4] 0.05 | [5] 0.007

RIPK2 (UniProt O43353)
inactive: [1] 0.031 | [2] -0.012 | [3] 0.045 | [4] 0.001 | [5] 0.023

RPL17 isoform 3 (UniProt P18621)
inactive: [1] 0.066 | [2] -0.005 | [3] -0.013 | [4] 0.027 | [5] 0.036

RPL26L1 (UniProt Q9UNX3)
inactive: [1] 0.05 | [2] -0.015 | [3] -0.028 | [4] 0.05 | [5] 0.084

RNGTT (UniProt O60942)
inactive: [1] -0.299 | [2] -0.054 | [3] 0.042 | [4] -0.027 | [5] 0.009

RIF1 (UniProt Q5UIP0)
inactive: [1] -0.004 | [2] 0.018 | [3] 0.012 | [4] -0.005 | [5] 0.003

RMND5A (UniProt Q9H871)
inactive: [1] 0.009 | [2] -0.01 | [3] -0.028 | [4] 0.022 | [5] -0.026

RNF14 (UniProt Q9UBS8)
inactive: [1] -0.01 | [2] 0.024 | [3] -0.001 | [4] -0.027 | [5] -0.042

RNASEH2C (UniProt Q8TDP1)
inactive: [1] -0.006 | [2] -0.02 | [3] 0.012 | [4] 0.004 | [5] -0.04

RNF126 (UniProt Q9BV68)
inactive: [1] -0.015 | [2] -0.026 | [3] -0.06 | [4] -0.054 | [5] 0.148

RMND1 (UniProt Q9NWS8)
inactive: [1] -0.028 | [2] 0.074 | [3] 0.001 | [4] 0.053 | [5] 0.004

Five consecutive entries already listed, for reference:
RNF166 (UniProt Q96A37)
inactive: [1] 0.105 | [2] -0.157 | [3] -0.005 | [4] 0.08 | [5] -0.148

RPAP3 (UniProt Q9H6T3)
inactive: [1] -0.01 | [2] 0.025 | [3] 0.011 | [4] 0.005 | [5] 0.021

RNF34 isoform 2 (UniProt Q969K3)
inactive: [1] 0.216 | [2] -0.018 | [3] -0.037 | [4] 0.032 | [5] -0.069

RPL13A (UniProt P40429)
inactive: [1] -0.01 | [2] 0.014 | [3] 0.01 | [4] 0.009 | [5] 0.017

RHOXF2 (UniProt Q9BQY4)
inactive: [1] -0.038 | [2] -0.023 | [3] 0.056 | [4] 0.009 | [5] -0.069

The results go on:

RNF181 (UniProt Q9P0P0)
inactive: [1] 0.03 | [2] -0.145 | [3] -0.031 | [4] 0.022 | [5] 0.066

RNF220 (UniProt Q5VTB9)
inactive: [1] 0.021 | [2] 0.047 | [3] -0.036 | [4] -0.001 | [5] 0.102

RNASEH2A (UniProt O75792)
inactive: [1] 0.005 | [2] -0.01 | [3] 0.021 | [4] 0.104 | [5] 0.006

RNF168 (UniProt Q8IYW5)
inactive: [1] -0.008 | [2] -0.052 | [3] 0.017 | [4] 0.061 | [5] -0.068

RNASEL (UniProt Q05823)
inactive: [1] 0.047 | [2] -0.041 | [3] 0.068 | [4] -0.004 | [5] 0.046

RIC8A (UniProt Q9NPQ8)
inactive: [1] -0.047 | [2] 0.012 | [3] 0.019 | [4] 0.016 | [5] 0.01

RNASEH2B (UniProt Q5TBB1)
inactive: [1] 0.056 | [2] -0.008 | [3] -0.032 | [4] 0.038 | [5] 0.049

RPL14 (UniProt P50914)
inactive: [1] 0.042 | [2] -0.05 | [3] -0.013 | [4] 0.052 | [5] 0.009

RPL30 (UniProt P62888)
inactive: [1] 0.008 | [2] -0.007 | [3] -0.014 | [4] -0.007 | [5] -0.024

RPL26 (UniProt P61254)
inactive: [1] 0.147 | [2] -0.189 | [3] 0.019 | [4] 0.236 | [5] 0.167

RNF31 (UniProt Q96EP0)
inactive: [1] 0.056 | [2] -0.05 | [3] 0.003 | [4] 0.039 | [5] 0.019

RHOT2 (UniProt Q8IXI1)
inactive: [1] 0.003 | [2] 0.131 | [3] 0.014 | [4] -0.024 | [5] 0.029

RIOX2 (UniProt Q8IUF8)
inactive: [1] 0.024 | [2] 0.03 | [3] -0.024 | [4] -0.018 | [5] 0.111

RHOG (UniProt P84095)
inactive: [1] -0.007 | [2] 0.02 | [3] 0.004 | [4] 0.015 | [5] -0.015

RPL11 (UniProt P62913)
inactive: [1] 0.013 | [2] -0.04 | [3] 0.001 | [4] -0.055 | [5] -0.007
